The results in this text go back to patent publication US20250002576A1.

These are yes or no findings as the source states them, for the method shown. A result given as binding can be weak or reduced; the word gives no strength.

The target of this test is mouse Claudin 18.2 (mouse). Briefly: flow cytometry screening. On the technique in general: Flow cytometry measures light scatter and fluorescence of single cells or particles in a stream.

B1: YU577-E08 (scFv as screened) (scFv, V domains shown)
VH: QVQLVQSGAEVKKPGASVKVSCKASGYTFTSYYMHWVRQAPGQGLEWMGIINPSGGSTSYAQKFQGRVTMTRDTSTSTVYMELSSLRSEDTAVYYCATRQFDYWGQGTLVTVSS
VL: QSVLTQPPSVSAAPGQKVTISCSGSSSNIGNNYVSWYQQLPGTAPKLLIYENNKRPSGIPDRFSGSKSGTSATLGITGLQTGDEADYYCGTWDSSLSAAVFGGGTKVTVL
Turning to B1, the binding result is reported as “binds”.

B2: YU574-D11 (scFv as screened) (scFv, V domains shown)
VH: QVQLVQSGGGLVQPGGSLRLSCAASGFTFSSYAMSWVRQAPGKGLEWVSAISGSGGSTYYADSVKGRFTISRDNSKNTLYLQMNSLRAEDTAVYYCAGGANGFDPWGQGTLVTVSS
VL: QSVLTQPPSVSGAPGQRVTISCTGSSSNIGAGYDVHWYQQLPGTAPKLLIYGNSNRPSGVPDRFSGSKSGTSASLAITGLQAEDEADYYCQSYDSSLSGLVFGGGTKLTVL
Consider B2, for which the binding entry is listed as “binds”.
